Results are given in words; binding and its absence hold for the method and conditions named. Binding seen in cells or lysates may run through a third protein. Some entries that bind do so weakly or less than the wild type. For part of these data: Where a sequence is shown, tags or fusion partners need not be part of it. One block for each molecule: values may come before it.
Legend:
FBXO2-Flag (1-297) = target: T1, FBXO2-Flag (1-297) (UniProt Q80UW2); assay: co-IP; Western blot of the Flag-peptide eluate of the anti-FLAG purification from HEK293T cells transfected with IR-Flag (Fig. S2A) or FBXO2-Flag (Fig. S2C)
T1 sequence: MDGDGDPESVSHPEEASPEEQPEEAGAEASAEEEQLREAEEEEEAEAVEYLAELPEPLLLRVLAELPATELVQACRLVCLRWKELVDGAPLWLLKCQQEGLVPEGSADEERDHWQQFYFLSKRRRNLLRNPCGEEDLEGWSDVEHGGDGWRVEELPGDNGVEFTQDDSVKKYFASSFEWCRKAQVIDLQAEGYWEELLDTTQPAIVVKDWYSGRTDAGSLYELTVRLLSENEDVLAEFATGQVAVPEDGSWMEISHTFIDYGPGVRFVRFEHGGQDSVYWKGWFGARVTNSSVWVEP

Chains of the proteins cited; added tags and fusions are not shown. Lines headed by an entry give the natural chain unless they say otherwise; changes in a name come on top. Residues count along the entry.
UniProt P15208, residues 28-1372: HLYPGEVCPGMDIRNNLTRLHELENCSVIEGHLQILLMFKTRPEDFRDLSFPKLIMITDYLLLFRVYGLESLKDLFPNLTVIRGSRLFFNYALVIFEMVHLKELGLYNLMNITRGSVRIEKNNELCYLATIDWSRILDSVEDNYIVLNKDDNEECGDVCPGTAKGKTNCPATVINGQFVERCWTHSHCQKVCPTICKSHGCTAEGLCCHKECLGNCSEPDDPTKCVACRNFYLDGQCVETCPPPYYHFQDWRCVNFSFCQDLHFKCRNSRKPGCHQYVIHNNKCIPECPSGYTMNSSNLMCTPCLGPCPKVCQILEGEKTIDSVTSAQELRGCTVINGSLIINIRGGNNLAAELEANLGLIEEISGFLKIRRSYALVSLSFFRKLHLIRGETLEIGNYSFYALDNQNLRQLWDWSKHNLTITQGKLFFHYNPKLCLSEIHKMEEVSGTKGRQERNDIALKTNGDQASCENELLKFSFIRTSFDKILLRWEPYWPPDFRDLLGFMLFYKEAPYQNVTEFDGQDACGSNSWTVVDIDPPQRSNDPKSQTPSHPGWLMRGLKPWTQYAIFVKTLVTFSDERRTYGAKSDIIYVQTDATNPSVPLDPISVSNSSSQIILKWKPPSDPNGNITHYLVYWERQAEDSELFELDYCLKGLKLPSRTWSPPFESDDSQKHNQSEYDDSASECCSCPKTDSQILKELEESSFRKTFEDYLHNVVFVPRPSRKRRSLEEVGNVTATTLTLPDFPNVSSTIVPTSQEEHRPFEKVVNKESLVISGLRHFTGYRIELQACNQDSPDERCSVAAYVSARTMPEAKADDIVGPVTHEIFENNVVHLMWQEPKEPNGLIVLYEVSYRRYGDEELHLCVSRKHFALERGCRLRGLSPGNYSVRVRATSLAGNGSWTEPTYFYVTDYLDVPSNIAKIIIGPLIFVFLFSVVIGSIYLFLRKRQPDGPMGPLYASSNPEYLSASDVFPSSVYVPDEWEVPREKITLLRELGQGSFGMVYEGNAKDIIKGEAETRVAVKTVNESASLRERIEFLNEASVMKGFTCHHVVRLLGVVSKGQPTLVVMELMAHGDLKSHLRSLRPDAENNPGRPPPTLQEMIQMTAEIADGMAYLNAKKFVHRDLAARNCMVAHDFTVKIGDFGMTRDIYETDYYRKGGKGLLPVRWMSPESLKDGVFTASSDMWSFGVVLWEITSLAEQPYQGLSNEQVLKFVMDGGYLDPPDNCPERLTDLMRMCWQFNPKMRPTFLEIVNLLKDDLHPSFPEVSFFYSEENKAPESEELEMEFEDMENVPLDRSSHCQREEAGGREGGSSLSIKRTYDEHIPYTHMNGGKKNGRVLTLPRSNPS
UniProt P06213, residues 28-1382: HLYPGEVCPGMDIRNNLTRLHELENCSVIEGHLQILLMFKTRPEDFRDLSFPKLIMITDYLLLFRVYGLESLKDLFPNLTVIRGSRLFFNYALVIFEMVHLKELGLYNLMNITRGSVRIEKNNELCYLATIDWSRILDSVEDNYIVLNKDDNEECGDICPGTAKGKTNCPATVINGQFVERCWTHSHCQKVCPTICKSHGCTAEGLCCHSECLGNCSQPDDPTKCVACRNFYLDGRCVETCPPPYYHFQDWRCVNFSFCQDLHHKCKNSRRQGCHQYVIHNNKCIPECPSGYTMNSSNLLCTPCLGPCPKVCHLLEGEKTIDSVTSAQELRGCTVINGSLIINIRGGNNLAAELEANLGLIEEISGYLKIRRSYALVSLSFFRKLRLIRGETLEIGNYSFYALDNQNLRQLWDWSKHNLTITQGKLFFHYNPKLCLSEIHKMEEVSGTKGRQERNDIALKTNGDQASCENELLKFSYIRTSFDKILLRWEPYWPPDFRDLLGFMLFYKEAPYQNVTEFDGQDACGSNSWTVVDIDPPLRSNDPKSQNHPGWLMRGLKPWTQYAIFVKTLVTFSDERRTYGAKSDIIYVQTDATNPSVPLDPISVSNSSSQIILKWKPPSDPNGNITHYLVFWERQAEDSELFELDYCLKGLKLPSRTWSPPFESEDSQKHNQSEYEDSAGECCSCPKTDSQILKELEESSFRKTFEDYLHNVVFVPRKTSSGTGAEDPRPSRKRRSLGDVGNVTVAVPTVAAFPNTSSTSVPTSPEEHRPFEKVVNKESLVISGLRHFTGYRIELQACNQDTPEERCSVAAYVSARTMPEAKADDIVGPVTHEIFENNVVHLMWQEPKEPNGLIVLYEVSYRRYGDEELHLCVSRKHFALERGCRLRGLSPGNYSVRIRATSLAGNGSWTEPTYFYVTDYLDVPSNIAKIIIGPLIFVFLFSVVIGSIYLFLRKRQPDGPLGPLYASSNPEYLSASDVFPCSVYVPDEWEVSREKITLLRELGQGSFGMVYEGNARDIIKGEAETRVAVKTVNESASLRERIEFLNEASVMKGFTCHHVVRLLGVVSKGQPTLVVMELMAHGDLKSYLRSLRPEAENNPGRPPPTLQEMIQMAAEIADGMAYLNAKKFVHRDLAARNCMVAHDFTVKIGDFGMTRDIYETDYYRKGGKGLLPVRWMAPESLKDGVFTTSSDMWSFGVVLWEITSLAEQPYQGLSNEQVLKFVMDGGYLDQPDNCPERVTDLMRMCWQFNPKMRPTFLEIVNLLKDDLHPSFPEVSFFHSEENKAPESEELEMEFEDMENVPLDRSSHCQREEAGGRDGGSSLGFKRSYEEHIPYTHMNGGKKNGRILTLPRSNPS
UniProt Q9WTX6: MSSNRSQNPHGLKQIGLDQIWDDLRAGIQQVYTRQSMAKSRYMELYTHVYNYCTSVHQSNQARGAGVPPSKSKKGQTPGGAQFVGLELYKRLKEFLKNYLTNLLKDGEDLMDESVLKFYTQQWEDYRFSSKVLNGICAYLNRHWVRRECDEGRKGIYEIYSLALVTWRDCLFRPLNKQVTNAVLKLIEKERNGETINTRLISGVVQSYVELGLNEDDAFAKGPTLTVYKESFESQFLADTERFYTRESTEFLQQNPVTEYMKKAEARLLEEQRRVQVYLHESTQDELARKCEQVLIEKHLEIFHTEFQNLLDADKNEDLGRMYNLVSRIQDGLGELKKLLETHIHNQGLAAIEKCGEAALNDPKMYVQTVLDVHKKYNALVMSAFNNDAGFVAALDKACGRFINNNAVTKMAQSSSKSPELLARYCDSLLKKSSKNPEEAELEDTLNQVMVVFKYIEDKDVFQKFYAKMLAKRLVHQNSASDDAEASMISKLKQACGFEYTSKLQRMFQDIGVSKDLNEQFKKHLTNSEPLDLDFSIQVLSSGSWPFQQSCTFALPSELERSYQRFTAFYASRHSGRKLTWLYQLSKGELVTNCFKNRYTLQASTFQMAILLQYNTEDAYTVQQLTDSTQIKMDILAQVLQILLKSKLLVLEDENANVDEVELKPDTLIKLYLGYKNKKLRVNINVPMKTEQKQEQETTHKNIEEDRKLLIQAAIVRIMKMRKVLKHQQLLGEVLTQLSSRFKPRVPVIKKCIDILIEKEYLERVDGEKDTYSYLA

[1] = target: insulin receptor (endogenous, mouse) (mouse (endogenous in 3T3-L1 and in mouse sWAT)) (UniProt P15208); assay: co-IP; whole cell lysates from 3T3-L1 cells, immunoprecipitated and immunoblotted with antibodies against the indicated proteins; Pierce IP kit
[2] = target: IR-Flag (insulin receptor with Flag tag) (UniProt P15208); assay: co-IP; Western blot of the Flag-peptide eluate of the anti-FLAG purification from HEK293T cells transfected with IR-Flag (Fig. S2A) or FBXO2-Flag (Fig. S2C)
[3] = target: insulin receptor (endogenous, mouse) (mouse (endogenous in 3T3-L1 and in mouse sWAT)) (UniProt P15208); assay: co-IP; subcutaneous white adipose tissue of mice; Pierce IP kit
[4] = target: insulin receptor in 293T cells (Co-IP of Fig. S2B) (UniProt P15208); assay: co-IP; 293T cells (Fig. S2B); constructs not told

binding (FBXO2-Flag (1-297)): binds
Molecule: insulin receptor (endogenous in HEK293T cells) (from UniProt P06213 28-1382)

binding [4]: binds
B3: FBXO2 in 293T cells (Co-IP of Fig. S2B) (protein, UniProt Q80UW2 1-297)
chain: MDGDGDPESVSHPEEASPEEQPEEAGAEASAEEEQLREAEEEEEAEAVEYLAELPEPLLLRVLAELPATELVQACRLVCLRWKELVDGAPLWLLKCQQEGLVPEGSADEERDHWQQFYFLSKRRRNLLRNPCGEEDLEGWSDVEHGGDGWRVEELPGDNGVEFTQDDSVKKYFASSFEWCRKAQVIDLQAEGYWEELLDTTQPAIVVKDWYSGRTDAGSLYELTVRLLSENEDVLAEFATGQVAVPEDGSWMEISHTFIDYGPGVRFVRFEHGGQDSVYWKGWFGARVTNSSVWVEP

More lines, now with the values behind:

Molecule: Cullin1 (endogenous in 3T3-L1 cells) (from UniProt Q9WTX6 1-776)
binding [1]: binds

B1: FBXO2 (endogenous in HEK293T cells) (protein, UniProt Q9UK22 1-296)
chain: MDGDGDPESVGQPEEASPEEQPEEASAEEERPEDQQEEEAAAAAAYLDELPEPLLLRVLAALPAAELVQACRLVCLRWKELVDGAPLWLLKCQQEGLVPEGGVEEERDHWQQFYFLSKRRRNLLRNPCGEEDLEGWCDVEHGGDGWRVEELPGDSGVEFTHDESVKKYFASSFEWCRKAQVIDLQAEGYWEELLDTTQPAIVVKDWYSGRSDAGCLYELTVKLLSEHENVLAEFSSGQVAVPQDSDGGGWMEISHTFTDYGPGVRFVRFEHGGQDSVYWKGWFGARVTNSSVWVEP
binding [2]: binds

B2: FBXO2 (endogenous, mouse) (protein, UniProt Q80UW2 1-297)
chain: MDGDGDPESVSHPEEASPEEQPEEAGAEASAEEEQLREAEEEEEAEAVEYLAELPEPLLLRVLAELPATELVQACRLVCLRWKELVDGAPLWLLKCQQEGLVPEGSADEERDHWQQFYFLSKRRRNLLRNPCGEEDLEGWSDVEHGGDGWRVEELPGDNGVEFTQDDSVKKYFASSFEWCRKAQVIDLQAEGYWEELLDTTQPAIVVKDWYSGRTDAGSLYELTVRLLSENEDVLAEFATGQVAVPEDGSWMEISHTFIDYGPGVRFVRFEHGGQDSVYWKGWFGARVTNSSVWVEP
binding [3]: binds
binding [1]: binds

— PMC13631264
